A short description of this data set: Cleavage test of BSA conjugates captured on streptavidin-ultralink resin. Particulars: for cleavage efficiency on streptavidin-ultralink resin, 7c compared to 7b: 1% TFA; for release of BSA from streptavidin resin under cleavage conditions: 1% TFA at 37° C., 1 hour.

The values that follow come from patent US20140273010A1, “ACID-CLEAVABLE AND CLICKABLE AFFINITY CAPTURE PROBE” (The Research Foundation for The State University of New York, priority 2013, published 2014).

Take “BSA-7b: alkyne functionalized BSA conjugated to probe 7b by azide-alkyne cycloaddition”: the “cleavage efficiency on streptavidin-ultralink resin, 7c compared to 7b” value was “similar” and the “release of BSA from streptavidin resin under cleavage conditions” value is “successfully released from resin”. Take “BSA-7c: alkyne functionalized BSA conjugated to probe 7c by azide-alkyne cycloaddition”: the “cleavage efficiency on streptavidin-ultralink resin, 7c compared to 7b” value is recorded as “similar”. Take “Biotin-PEG10-N3 [Compound 8, reference compound]”: the “release of BSA from streptavidin resin under cleavage conditions” value was “a small amount of BSA conjugated to non-acetal probe 8 was released from the resin”.
